{"source": "PubChem BioAssay AID652180", "about": "(National Center for Advancing Translational Sciences (NCATS), 2013)", "note": "This list was built around the results that the source calls inconclusive (neither active nor inactive); the mix of calls is not that of the screen. Where the call is inconclusive, the potency comes from a doubtful curve fit. Activity calls are given as the source filed them. Calls follow the shape of the dose curve; as a rule, active = well fitted inhibition curve with a large enough effect; inconclusive = small, poorly fitted or top-dose-only effect; inactive = no such curve, though single readings can be large or run the other way."}
{"assay": "qHTS Assay for Lipid Storage Modulators: 3T3L1 Assay against Probe and Analogs", "conditions": "3T3-L1 lipid droplets, BODIPY imaging, oleic acid, 18-24 h; activity change, negative = decreased lipid storage: at 46.1 µM (top of the series)", "method_in_brief": "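Lipid droplet number and size, plus cell count, were measured by imaging BODIPY- and Hoechst-stained 3T3L1 cells. Compounds (0.46% DMSO final) were co-incubated for 18-24 h with oleic acid, added at 400 uM, to induce droplets. Triacsin C served as control.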"}
{"smiles": "CCOc1ccc(CCNC(=O)CN(C)C)cc1OCC", "Potency": "inconclusive: 105 nM [inhibitor, full curve, poor fit]"}
{"smiles": "CCOc1cc(CCNC(=O)c2cc3sccc3n2Cc2ccccc2)cc(F)c1OCC", "Potency": "active: 52.6 nM"}
{"smiles": "COc1cc(C)c(Sc2cnc(NC(=O)c3ccc(CNC(C)C(C)(C)C)cc3)s2)cc1C(=O)N1CCN(C(C)=O)CC1", "note": "(stereo not given)", "Potency": "active: 3320 nM"}
{"smiles": "CCOc1ccc(CCNC(=O)c2cc3sccc3n2CCN2CCN(C)CC2)cc1OCC", "Potency": "active: 1320 nM"}
{"smiles": "O=C(NC1CCCc2c1cnn2-c1ccc(F)cc1F)c1ccccn1", "note": "(stereo not given)", "Potency": "inactive"}
{"smiles": "O=C(NC1CCCc2c1cnn2-c1ccc(F)cc1F)c1ccsc1", "note": "(stereo not given)", "Potency": "inactive"}
{"smiles": "O=C(CCCCCCC(=O)Nc1ccccc1)NO", "activity change, negative = decreased lipid storage": "inconclusive: -33.2% [inhibitor]"}
{"smiles": "CC(C)(NC(=O)Nc1ccccc1Cl)C(=O)N1CCC(C(=O)O)CC1", "Potency": "inactive"}
{"smiles": "CCn1c(C(=O)NCCc2ccc(OC)cc2)cc2sccc21", "Potency": "inconclusive: 11800 nM [inhibitor, single point]"}
{"smiles": "CCOC(=O)C1CCN(C(=O)C2(NC(=O)Nc3ccccc3Cl)CCCCC2)CC1", "Potency": "inconclusive: 1180 nM [inhibitor, full curve, poor fit]"}
